Data: US5439884A, “Method of controlling fertilization using bombesin or its agonist” (Oregon Regional Primate Research Center, priority 1992, dated 1995)
“Also recorded” adds a separate entry of the source. Not every detail of the peptide structures is certain; ends, links or a residue may be inferred. Where a SMILES comes first, the peptide text is derived from it. [ ]: non-standard residue; d: D form. The star is where a group is joined. X1 = CC(C)C[C@@H](CN[C@@H](CC(C)C)C(N)=O)N*; pGlu = O=C1CC[C@@H](C(=O)O)N1

How the values were obtained:
[1] = system: sperm; test: acrosome reaction, analogs alone or in the presence of GRP (sperm species not stated); type: cell-based
Method: (§1) The acrosome reaction, which is necessary for sperm to fertilize the egg, was induced by the following methods.
(§2) For monkeys, sperm was collected, washed twice in balanced salts, resuspended in lactate/bicarbonate and dibutyryl cAMP, and then incubated for 60 minutes. […] See Wolf, D. P. et al. Mol. Reprod. Dev. 27:261-280 (1990); Lanzendorf, S. E. et al. Mol. Reprod. Dev. 25:61-66 (1990); and Wolf D. P. et al. Biol. Reprod. 41:335-346 (1989). All of these three publications are hereby incorporated by reference.
(§3) To measure the effects of bombesin on the acrosome reaction, capacitation was conducted in the presence or absence of bombesin. After incubation, samples of sperm were removed to determine the percentage of sperm which had undergone the acrosome reaction as measured with an acrosome specific monoclonal antibody and FITC fluorescence [see Wolf, D. P. Am. J. Reprod. Immunol. 20:106-113 (1989), which is hereby incorporated by reference].
[…] bombesin analogs, BIM 26136, BIM 26187, BIM 26189, BIM 26224, BIM 26226, BIM 26244, and BIM 26028, were used to test their effect on the acrosome reaction, either alone or in the presence GRP, in a manner described above.

[2] = system: monkey sperm; test: acrosome reaction in monkey sperm (acrosome specific monoclonal antibody, FITC fluorescence); type: cell-based, monkeys (rhesus); settings: FIG. 3
Method: as §1, §2, §3

[3] = system: human sperm; test: acrosome reaction in human sperm; type: cell-based; settings: FIG. 3
Method: as §1, §3

[4] = system: monkey egg by monkey sperm; test: in vitro fertilization of rhesus monkey ova by sperm; type: cell-based
[5] = system: new GRP receptor; test: response of new GRP receptor in transfected cells and Xenopus oocytes; type: cell-based, rat
Source text: A new GRP receptor, which is expressed in very high levels in rat sperm, has recently been cloned. cDNA encoding this receptor was used to determine if this new GRP receptor is expressed in primate sperm.

Compound | % Acrosome Reacted, Analog + GRP ([1]; analog 50 nM + GRP 2 nM) | % Acrosome Reacted, Analog ([1]; analog alone, final concentration 50 nM, blank control 6.000 ± .707) | block of bombesin-induced stimulation of the acrosome reaction [2] | block of progesterone induced acrosome reaction [2] | block of bombesin-induced stimulation of the acrosome reaction [3] | block of progesterone induced acrosome reaction [3] | effect on in vitro fertilization of the monkey egg by monkey sperm [4] | eggs fertilized, first experiment ([4]; 100 nM added to the capacitation and fertilization reactions, control 3 of 6) | eggs fertilized, second experiment ([4]; 100 nM added to the capacitation and fertilization reactions, control 12 of 20) | block of the responses of the new receptor to GRP and Neuromedin B [5]
CC(C)C[C@@H](CN[C@@H](CC(C)C)C(N)=O)NC(=O)[C@H](Cc1c[nH]cn1)NC(=O)CNC(=O)[C@@H](NC(=O)[C@H](C)NC(=O)[C@H](Cc1c[nH]c2ccccc12)NC(=O)[C@H](CCC(N)=O)NC(=O)[C@H](CC(N)=O)NC(=O)CNC(=O)[C@H](CC(C)C)NC(=O)[C@H](CCCNC(=N)N)NC(=O)[C@H](CCC(N)=O)NC(=O)[C@@H]1CCC(=O)N1)C(C)C [BIM 26028, H-pGlu-Gln-Arg-Leu-Gly-Asn-Gln-Trp-Ala-Val-Gly-His-Leu-.psi.(CH2 -NH)-Leu-NH2] ([pGlu]QRLGNQWAVGH-X1) | 8.000 ± .707% | 8.000 ± .913% | – | – | – | – | – | – | – | –
CCCNC(=O)[C@H](CC(C)C)NC(=O)[C@H](Cc1c[nH]cn1)NC(=O)CNC(=O)[C@@H](NC(=O)[C@H](C)NC(=O)[C@H](Cc1c[nH]c2ccccc12)NC(=O)[C@H](CCC(N)=O)NC(=O)[C@H](N)Cc1ccccc1)C(C)C [BIM 26147, D-Phe-Gln-Trp-Ala-Val-Gly-His-Leu-NH(C3 H7)] | – | – | could be blocked; also recorded: completely blocks | could also be blocked; also recorded: completely blocks | could be blocked; also recorded: completely blocks | could also be blocked; also recorded: completely blocks | blocks | 1 of 5 | 0 of 4 | clearly blocked
